Experimental data: US6066628A, “Non-iron metalloporphyrins and methods of use” (Emory University, priority 1998, dated 2000)
For at least one compound, name, drawing or mass did not settle the structure.

How the values were obtained:
[1] = test system: Y. pseudotuberculosis; assay type: cell-based; settings: iron restricted NBD 0.1 mM, 20 to 24 hours (Table 5)
[2] = test system: S. aureus; assay type: cell-based, Staphylococcus aureus
[3] = test system: Y. enterocolitica; assay type: cell-based

SMILES | MIC [1] | antibacterial activity [2] | HemR requirement of bacterial sensitivity [3]
C=CC1=C(C)C2=Cc3c(C=C)c(C)c4[n]3[Ga][n]3c(c(C)c(CCC(=O)O)c3=CC3=NC(=C4)C(C)=C3CCC(=O)O)=CC1=N2 [Ga-PPIX, Gallium (III) protoporphyrin IX chloride] | 0.2/0.4 | – | –
CCC1=C(CC)c2cc3[nH]c(cc4nc(cc5[nH]c(cc1n2)c(CC)c5CC)C(CC)=C4CC)c(CC)c3CC [OEP, octaethylporphine, reference compound] | – | limited activity | did not require expression of HemR
